# Binding screen against folded nucleic acids

Calls as published in the ROBIN set (doi:10.1002/anie.202211358).

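Each compound is printed as two spots on a slide made to bind it covalently, so it has no test concentration; the read-out is fluorescence of the bound, labelled oligonucleotide. The data file lists only calls. An earlier report of the laboratory on the PreQ1, TPP and SAM-II riboswitches (doi:10.1038/s41467-019-09493-3) used 1 µM RNA for 2 h and required a mean Z-score above 3 (spot signal-to-noise against the whole library), a score well above that on a control array, and duplicate spots agreeing (coefficient of variation under 100); it then also set aside compounds that hit other targets, which this list keeps. The cut-offs behind this list may differ. These are primary screening calls, not affinities; a compound without a hit may have attached poorly or may still bind in solution.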
Key: yes = hit, no = tested without a hit.
The compounds are a random part of those screened.
A dash means that no call is listed here.

Targets, with sequences 5′ to 3′:
SAM-II: SAM-II riboswitch RNA pseudoknot, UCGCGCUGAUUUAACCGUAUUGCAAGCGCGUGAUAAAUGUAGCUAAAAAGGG. About 21,000 compounds screened, about 200 hits.
PreQ1: PreQ1 riboswitch RNA pseudoknot, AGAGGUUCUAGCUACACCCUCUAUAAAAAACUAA. From B. subtilis. About 24,000 compounds screened, about 170 hits.
TPP: TPP riboswitch RNA three-way junction, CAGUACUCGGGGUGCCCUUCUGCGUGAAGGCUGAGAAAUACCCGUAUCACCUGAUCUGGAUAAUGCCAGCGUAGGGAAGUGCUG. About 24,000 compounds screened, about 160 hits.

| Compound | SAM-II | PreQ1 | TPP |
|---|---|---|---|
| `O[C@@H]1CN(c2nnc(C3CCC3)o2)CC[C@H]1c1ccc2c(c1)OCO2` | no | no | no |
| `COc1ccc(C2=CC(c3ccccc3)n3nc(CCCO)nc3N2)cc1` (centres undefined) | no | no | no |
| `CN1CCCC1c1ccc(=O)[nH]c1` (centres undefined) | no | no | no |
| `Nc1c(C(=O)c2ccc(F)cc2)oc2ccc(Cl)cc12` | no | no | no |
| `Cc1ccc2c(c1)c1c3n2CCN(CC(O)CN2CCCCC2)C3CCC1` (centres undefined) | no | no | no |
| `Cc1nc(N)ncc1C(=O)N1CCC(c2cc(Cc3ccccc3)n[nH]2)CC1` | no | no | no |
| `CCOC(=O)c1ccc(Nc2c(C(=O)OCC)cnc3c(Cl)cccc23)cc1` | no | no | no |
| `Cc1ccc(C)c(NC(=O)N2CCN(C(=O)c3nonc3N)CC2)c1` | - | no | no |
| `Cc1nc2c(-c3ccccc3)cnn2c(NCCN2CCOCC2)c1C` | - | no | no |
| `Cc1noc(N)c1-c1ccccc1Cl` | no | no | no |
| `CC1CC=C2C(=C(Nc3cccc(F)c3)C(=O)N2c2cccc(F)c2)C1` (centres undefined) | no | no | no |
| `CC(C)(CO)CNC(=O)c1cc(COc2cccc3cccnc23)on1` | no | no | no |
| `N#CC1=C(N)OC2=C(C(=O)CCC2)C12C(=O)Nc1ccc(Cl)cc12` (centres undefined) | no | no | no |
| `CCc1noc(CNc2nc(-c3cccnc3)nc3c2CCNCC3)n1` | no | no | no |
| `O=C(O)C(c1ccc(CO)cc1)N1CCC(OCc2cccnc2)CC1` (centres undefined) | no | no | no |
| `CC(=O)c1cccc(Nc2nc3ccc(C)cc3n3cnnc23)c1` | no | no | no |
| `Cc1cccc(-c2nc(S(=O)(=O)c3ccccc3)c(NCC3CCCO3)o2)c1` (centres undefined) | - | no | no |
| `OC1CCN(c2ccnc(N3CCCN(Cc4cccc(F)c4)CC3)n2)C1` (centres undefined) | no | no | no |
| `CS(=O)(=O)c1cnc(NCCc2cscn2)nc1C1CCCNC1` (centres undefined) | no | no | no |
| `Cc1cccc(CN2CCN(C(=O)CCn3cncn3)CC2CCO)n1` (centres undefined) | no | no | no |
| `O=C(O)c1c(CNCc2ccco2)c2ccccc2n1Cc1ccccc1F` | - | no | no |
| `COC(=O)C1=C(N)OC(C)=C(C(=O)OCc2ccccc2)C12C(=O)Nc1ccccc12` (centres undefined) | no | no | no |
| `O=C(c1ccccc1)c1ccc2c3c(cccc13)C(=O)N(CCO)C2=O` | no | no | no |
| `CCC12CN3CC(CC)(CN(C1)C3c1ccc(N)cc1)C2=O` (centres undefined) | - | no | no |
| `CCc1nc2nc(C)cc(Nc3cc(Cl)ccc3OC)n2n1` | no | no | no |
| `OC1COCCN(c2nc(-c3ccccc3)nc3ccccc23)C1` (centres undefined) | no | no | no |
| `NCc1cn2cc(Cl)sc2n1` | no | no | no |
| `OC1COCCN(Cc2cccc(Oc3cccc(C(F)(F)F)c3)c2)C1` (centres undefined) | no | no | no |
| `COc1ccccc1CNc1nc2c(C)cccc2cc1-c1noc(C)n1` | - | no | no |
| `COCCC1(CO)CCCN(Cc2[nH]cc(C)c(=O)c2C)C1` (centres undefined) | no | no | no |
| `CCc1nc2c(c(N[C@H](C)c3ccccc3)n1)CCN(C(=O)CN)CC2` | no | no | no |
| `CCOc1ccc(S(=O)(=O)N2CCN(c3cc(Nc4ccc(C)cc4)nc(C)n3)CC2)cc1` | - | no | no |
| `Cc1ccc(C(C)C)c(OCCCn2c(C(C)O)nc3ccccc32)c1` (centres undefined) | - | no | no |
| `COC(=O)CNC1CC(=O)N(c2ccc(Br)cc2)C1=O` (centres undefined) | no | no | no |
| `CCOC(=O)NC(Nc1ccc(F)cc1)C(Cl)(Cl)Cl` (centres undefined) | no | no | no |
| `Clc1ccc(CNCCCc2nc3ccccc3[nH]2)cc1` | no | no | no |
| `COc1ccccc1NCC(=O)NN=Cc1c(F)cccc1Cl` | no | no | no |
| `CCOC(=O)c1cnc2ccccc2c1Nc1cccc(C(C)=O)c1` | no | no | no |
| `CC(C)C[C@@]1(CO)N[C@H](c2ccccc2-c2ccccc2)[C@@H]2CN(C)C[C@@H]21` | no | no | no |
| `Nc1cccc(N2N=C(C(=O)O)CC2=O)c1` | no | no | no |
| `O=C(Nc1ccncc1)C(=O)c1cn(Cc2ccc(Cl)cc2)c2ccccc12` | no | no | no |
| `OC1COCCN(c2nc3ccc(Cl)cc3s2)C1` (centres undefined) | no | no | no |
| `O=C(c1ccc(-n2cnnc2)nc1)N1CCCC(O)(CO)CC1` (centres undefined) | no | no | no |
| `CCOC(=O)N1CCN(c2c(NCc3ccc(C)cc3)c(=O)c2=O)CC1` | - | no | no |
| `O=C(c1onc2ccccc12)N1CCC(CO)(CCCc2ccccc2)CC1` | no | no | no |
| `Cc1ccc(Nc2cc(N3CCN(C(=O)C(C)C)CC3)nc(C)n2)cc1` | - | no | no |
| `Cc1cc(C)c2nc(C)cc(C(=O)N3CC(O)CO3)c2c1` (centres undefined) | no | no | no |
| `CCc1cccc(Nc2ncnc3c2nc2n3CCCC2)c1` | - | no | no |
| `COc1ccc(S(=O)(=O)c2cnc3ccc(Cl)cc3c2NCc2ccccc2)cc1` | - | no | no |
| `N#CC1=C(N)Oc2n[nH]c(-c3ccccc3)c2C1c1cccnc1` (centres undefined) | no | no | no |
| `CC[N+](CC)(CC)CCOc1cccc(OCC[N+](CC)(CC)CC)c1OCC[N+](CC)(CC)CC` | no | no | no |
| `COc1cccc(NCc2nc(-c3ccccc3)no2)c1` | no | no | no |
| `COc1ccc(CCNCc2ccc3c(c2)n(C)c(=O)n3C)cc1` | - | no | no |
| `O=C1c2cccc3cccc(c23)C(=O)N1CC1CCN(CC(O)COc2ccc(F)cc2)CC1` (centres undefined) | no | no | no |
| `CCCSc1nnc2nc(O)cc(N)n12` | no | no | no |
| `CC(C)c1cc(Nc2cccc(Cl)c2)n2nc(-c3cccnc3)nc2n1` | - | no | no |

Some entries from above, unchanged:

Compound	SAM-II	PreQ1	TPP
CC(=O)c1cccc(Nc2nc3ccc(C)cc3n3cnnc23)c1	no	no	no
O=C(c1onc2ccccc12)N1CCC(CO)(CCCc2ccccc2)CC1	no	no	no
Nc1cccc(N2N=C(C(=O)O)CC2=O)c1	no	no	no
COc1ccc(S(=O)(=O)c2cnc3ccc(Cl)cc3c2NCc2ccccc2)cc1	-	no	no
Cc1ccc(C)c(NC(=O)N2CCN(C(=O)c3nonc3N)CC2)c1	-	no	no
O=C(Nc1ccncc1)C(=O)c1cn(Cc2ccc(Cl)cc2)c2ccccc12	no	no	no
CS(=O)(=O)c1cnc(NCCc2cscn2)nc1C1CCCNC1 (centres undefined)	no	no	no